The source of these data is paper PMC5052650.

By UniProt entry, the sequences of proteins in these tests, tags left out. Residues count along the entry.
UniProt Q9UGN5, 1-70: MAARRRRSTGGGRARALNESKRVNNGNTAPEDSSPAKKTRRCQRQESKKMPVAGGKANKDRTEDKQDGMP
UniProt Q9UGN5, 1-218: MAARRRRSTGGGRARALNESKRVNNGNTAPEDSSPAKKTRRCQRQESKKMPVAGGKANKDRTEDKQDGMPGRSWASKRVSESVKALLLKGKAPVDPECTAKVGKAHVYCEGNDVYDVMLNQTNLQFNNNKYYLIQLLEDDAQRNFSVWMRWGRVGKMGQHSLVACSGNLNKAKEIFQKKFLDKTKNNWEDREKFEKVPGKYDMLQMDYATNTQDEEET
UniProt Q9UGN5, 71-583: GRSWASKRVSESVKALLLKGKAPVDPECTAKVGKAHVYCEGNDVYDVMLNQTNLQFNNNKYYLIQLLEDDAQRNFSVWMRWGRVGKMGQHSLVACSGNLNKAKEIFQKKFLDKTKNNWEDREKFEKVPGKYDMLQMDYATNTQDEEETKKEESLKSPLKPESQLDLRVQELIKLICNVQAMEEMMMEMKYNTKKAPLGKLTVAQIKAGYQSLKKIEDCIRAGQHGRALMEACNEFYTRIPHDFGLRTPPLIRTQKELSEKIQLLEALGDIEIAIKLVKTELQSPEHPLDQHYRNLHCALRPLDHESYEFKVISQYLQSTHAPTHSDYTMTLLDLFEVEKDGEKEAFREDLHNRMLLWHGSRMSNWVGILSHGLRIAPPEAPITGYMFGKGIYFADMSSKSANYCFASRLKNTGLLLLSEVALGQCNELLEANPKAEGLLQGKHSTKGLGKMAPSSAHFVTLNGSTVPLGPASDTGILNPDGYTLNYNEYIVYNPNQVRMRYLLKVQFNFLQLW
UniProt Q9UGN5, 71-218: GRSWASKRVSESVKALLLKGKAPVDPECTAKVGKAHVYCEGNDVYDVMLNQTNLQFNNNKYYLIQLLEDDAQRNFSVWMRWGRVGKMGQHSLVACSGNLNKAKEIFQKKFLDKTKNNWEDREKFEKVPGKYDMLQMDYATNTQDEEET

For some of these results: A weaker result is weaker than the reference pair of the same experiment. The exact form of at least one protein or probe is not confirmed. For some of these results: A negative result means that nothing was seen under these conditions. For some of these results: At least one verdict rests on a figure or table, not on a statement of the authors.

Series [1] deals with ARTD2N (Homo sapiens) (UniProt Q9UGN5). In words: EMSA. The settings on record: no shift, binds in FP (fast off rate suggested); 5'-phosphate; EMSA: 50 mM Hepes, 300 mM NaCl, 0.1 mM EDTA, 10% glycerol, 0.1 mM TCEP, on ice, 1 uM DNA; recombinant protein; protein details: His6-thioredoxin removed by TEV (QS left); folded or branched DNA.
Series [2] concerns the target ARTD2N+WGR (Homo sapiens) (UniProt Q9UGN5). Put plainly: EMSA. The settings on record: slight delay; 5'-phosphate; EMSA: 50 mM Hepes, 300 mM NaCl, 0.1 mM EDTA, 10% glycerol, 0.1 mM TCEP, on ice, 1 uM DNA; recombinant protein; protein details: His6-thioredoxin removed by TEV (QS left); folded or branched DNA.
For series [3], the target named is ARTD2WGR+CAT (Homo sapiens) (UniProt Q9UGN5). Put plainly: size-exclusion HPLC. The settings on record: 5'-phosphate; SEC-SAXS: 20 mM Hepes pH 7.5, 300 mM NaCl, 5% glycerol; recombinant protein; protein details: His6-ZB removed by TEV (QS left); folded or branched DNA.
Series [4] deals with ARTD2N (Homo sapiens) (UniProt Q9UGN5). In words: fluorescence polarization. The settings on record: same range as FL, FP: 10 mM Hepes pH 8.0, 150 mM NaCl, 0.1 mM TCEP, 0.1 mM EDTA, 10% glycerol, 25 C, 5 nM DNA (250 nM for stoichiometry), recombinant protein, protein details: His6-thioredoxin removed by TEV (QS left), label: fluorescein.
Series [5] concerns the target ARTD2N+WGR (Homo sapiens) (UniProt Q9UGN5). Put plainly: fluorescence polarization. The settings on record: same range as FL, FP: 10 mM Hepes pH 8.0, 150 mM NaCl, 0.1 mM TCEP, 0.1 mM EDTA, 10% glycerol, 25 C, 5 nM DNA (250 nM for stoichiometry), recombinant protein, protein details: His6-thioredoxin removed by TEV (QS left), label: fluorescein. On the technique in general: Fluorescence polarisation rises when a labelled molecule tumbles more slowly, as on binding a larger partner.

Series [6] addresses ARTD2WGR+CAT (Homo sapiens) (UniProt Q9UGN5). Put plainly: fluorescence polarization. The settings on record: Kd between 170 nM and 4 uM, FP: 10 mM Hepes pH 8.0, 150 mM NaCl, 0.1 mM TCEP, 0.1 mM EDTA, 10% glycerol, 25 C, 5 nM DNA (250 nM for stoichiometry), recombinant protein, protein details: His6-ZB removed by TEV (QS left), label: fluorescein.
For series [7], the target named is ARTD2FL (Homo sapiens) (UniProt Q9UGN5). In words: EMSA. The settings on record: did not bind efficiently, EMSA: 50 mM Hepes, 300 mM NaCl, 0.1 mM EDTA, 10% glycerol, 0.1 mM TCEP, on ice, 1 uM DNA, recombinant protein, residues 1-583, protein details: His6-thioredoxin removed by TEV (QS left). Background: In EMSA bound probe runs differently from free probe, usually more slowly.

Series [8] has as its target ARTD2WGR (Homo sapiens) (UniProt Q9UGN5). Put plainly: fluorescence polarization. The settings on record: Kd micromolar; 5'-phosphate; FP: 10 mM Hepes pH 8.0, 150 mM NaCl, 0.1 mM TCEP, 0.1 mM EDTA, 10% glycerol, 25 C, 5 nM DNA (250 nM for stoichiometry); recombinant protein; protein details: His6-ZB removed by TEV (QS left); label: fluorescein.
[9] abbreviates: 5'-phosphate, folded or branched DNA.

In the case of “GGAAGTTCTTTTGAACTTCC [oligonucleotide 6]”, the figures for the binding result in series [1], in series [2] and in series [3] were “no binding”, “binds” and “binds”, respectively.

As for “GGAAGTTCTTTTGAACTTCC [oligonucleotide 42 (labelled 6)]”, the binding result in series [4] (setting [9]) was “binds”; in series [5] (setting [9]) it was “binds”; in series [6] (setting [9]), “binds more weakly”.

Regarding “GGAAGTTCTTTTGAACTTCC [oligonucleotide 5]”, the binding result in series [7] (folded or branched DNA) is reported as “binds more weakly”.

In the case of “GCCTTAGCGCGTATACGCGCTAAGGC (double strand) [oligonucleotide 38 (labelled 18)]”, the binding result in series [4] (5'-phosphate) is on record as “binds”; in series [5] (5'-phosphate), “binds”; in series [8], “binds more weakly”; in series [6] (5'-phosphate), “binds more weakly”.

“CCAGGACCAGGGCGCAGATCACCTTGTTCTCCA (double strand) [oligonucleotide 19]”: in series [7], the binding result is “binds more weakly”.

As to “GCCTTAGCGCGTATACGCGCTAAGGC (double strand) [oligonucleotide 17]”, the binding result in series [7] is reported as “binds more weakly”.

Regarding “GGAAGTTCTTTTGAACTTCCTCGAAGCTTTTGCTTCGA [oligonucleotide 2]”, the binding result in series [3] is listed as “binds”.

Take “CCAGGACCAGGGCGCAGATCACCTTGTTCTCCA (double strand) [oligonucleotide 39 (labelled 19)]”: the binding result is “binds” in series [4], “binds” in series [5] and “binds more weakly” in series [6].

With “GGAAGTTCTTTTGAACTTCCTCGAAGCTTTTGCTTCGA [oligonucleotide 41 (labelled 2)]”, the results for the binding result in series [4] (setting [9]), in series [5] (setting [9]) and in series [6] (setting [9]) were “binds”, “binds” and “binds more weakly”, respectively.

With “GGAAGTTCTTTTGAACTTCCTCGAAGCTTTTGCTTCGA [oligonucleotide 1]”, the binding result in series [7] (folded or branched DNA) is “binds more weakly”.

Turning to “CCAGGACCAGGGCGCAGATCACCTTGTTCTCCA (double strand) [oligonucleotide 40 (labelled 20)]”, the binding result in series [4] (5'-phosphate) is on record as “binds”; in series [5] (5'-phosphate), “binds”; in series [8] it was “binds more weakly”; in series [6] (5'-phosphate), “binds more weakly”.
